Results reported in publication PMC5868269.
These are yes or no findings as the source states them, for the method shown. Some entries that bind do so weakly or less than the wild type.

Sequences of proteins named here, by UniProt entry; tags and fusion partners are left off. A change or cut given only in a name is not applied to a line headed by its entry. Residues count along the entry.
UniProt Q99523, residues 78-831: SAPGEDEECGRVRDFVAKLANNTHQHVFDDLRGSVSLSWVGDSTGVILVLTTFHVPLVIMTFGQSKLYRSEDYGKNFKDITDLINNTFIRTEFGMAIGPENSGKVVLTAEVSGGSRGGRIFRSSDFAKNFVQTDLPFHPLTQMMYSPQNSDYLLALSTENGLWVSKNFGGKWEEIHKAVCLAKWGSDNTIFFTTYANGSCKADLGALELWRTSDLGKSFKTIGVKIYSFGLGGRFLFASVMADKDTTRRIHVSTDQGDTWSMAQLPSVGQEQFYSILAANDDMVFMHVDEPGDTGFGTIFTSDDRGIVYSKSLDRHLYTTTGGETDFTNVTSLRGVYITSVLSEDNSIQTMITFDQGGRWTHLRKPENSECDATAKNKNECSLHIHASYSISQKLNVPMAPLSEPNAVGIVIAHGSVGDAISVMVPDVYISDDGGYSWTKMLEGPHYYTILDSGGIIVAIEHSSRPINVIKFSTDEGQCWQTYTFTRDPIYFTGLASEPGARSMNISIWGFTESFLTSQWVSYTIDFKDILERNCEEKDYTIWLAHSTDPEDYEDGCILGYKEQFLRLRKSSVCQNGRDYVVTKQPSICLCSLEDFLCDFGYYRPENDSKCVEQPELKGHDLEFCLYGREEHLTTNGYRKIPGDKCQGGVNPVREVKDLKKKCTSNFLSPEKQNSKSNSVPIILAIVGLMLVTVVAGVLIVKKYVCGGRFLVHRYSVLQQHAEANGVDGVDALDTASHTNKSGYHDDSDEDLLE

Experiments:
[1] = target: FLAG-sortilin wp (without propeptide) (human) (UniProt Q99523); test: non-reducing SDS-PAGE and Western blot; lysates of transfected HEK293 cells in non-reducing Laemmli buffer, anti-FLAG or anti-His6 blot; disulfide-linked homodimers and multimers; some cells treated with 2-FPA for 24 h
[2] = target: His6-sortilin full length (Full) (human) (UniProt Q99523); test: as above

binding [1]	binding [2]	Substance
binds		FLAG-sortilin wp (without propeptide) (from UniProt Q99523-1 34-831) (receptor)
	binds	His6-sortilin full length (Full) (from UniProt Q99523-1 78-831) (receptor)
